These are yes or no findings as the source states them, for the method shown. For some assays here: A result given as binding can be weak or reduced; the word gives no strength.
Experiments:
[1] = molecular target: OPTN-GST (human) (UniProt Q96CV9); assay: microscopy-based bead assay; Fig. 6e, Extended Data Fig. 10: GST, OPTN-GST or GST–NAP1 on glutathione beads; EGFP–TBK1 WT, KD or E696K 250 nM; 25 mM Tris-HCl pH 7.4, 150 mM NaCl, 1 mM DTT; 30 min; Extended Data Fig. 10 with and without ATP/MgCl2 (interaction weakened with ATP/MgCl2); confocal imaging; both purified
[2] = molecular target: NAP1 delta-FIP200 (I11S/L12S), bait of the bead assay (human) (UniProt Q9H6S1); assay: microscopy-based bead assay; Extended Data Fig. 3b: NAP1 wild type or point mutants on beads; NDP52–mCherry, FIP200–GFP and mCherry–TBK1 250 nM; 1 h; confocal imaging; both purified

Sequences of proteins named here, by UniProt entry; tags and fusion partners are left off. A change or cut given only in a name is not applied to a line headed by its entry.
UniProt Q96CV9: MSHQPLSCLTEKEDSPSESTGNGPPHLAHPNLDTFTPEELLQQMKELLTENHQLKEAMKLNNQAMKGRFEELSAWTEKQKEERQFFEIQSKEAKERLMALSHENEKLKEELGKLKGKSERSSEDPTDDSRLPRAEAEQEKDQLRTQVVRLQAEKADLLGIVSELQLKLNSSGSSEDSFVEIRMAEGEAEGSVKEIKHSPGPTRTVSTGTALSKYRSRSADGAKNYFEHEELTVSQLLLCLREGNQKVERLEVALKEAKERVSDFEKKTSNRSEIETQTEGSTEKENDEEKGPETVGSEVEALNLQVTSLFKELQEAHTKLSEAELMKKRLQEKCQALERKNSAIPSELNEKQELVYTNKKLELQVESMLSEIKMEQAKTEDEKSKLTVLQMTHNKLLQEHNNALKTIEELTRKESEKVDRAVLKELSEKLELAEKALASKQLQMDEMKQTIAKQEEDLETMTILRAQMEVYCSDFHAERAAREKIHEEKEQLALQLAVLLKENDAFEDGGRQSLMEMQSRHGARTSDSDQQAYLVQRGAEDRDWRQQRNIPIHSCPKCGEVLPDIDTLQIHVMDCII
UniProt Q9UHD2: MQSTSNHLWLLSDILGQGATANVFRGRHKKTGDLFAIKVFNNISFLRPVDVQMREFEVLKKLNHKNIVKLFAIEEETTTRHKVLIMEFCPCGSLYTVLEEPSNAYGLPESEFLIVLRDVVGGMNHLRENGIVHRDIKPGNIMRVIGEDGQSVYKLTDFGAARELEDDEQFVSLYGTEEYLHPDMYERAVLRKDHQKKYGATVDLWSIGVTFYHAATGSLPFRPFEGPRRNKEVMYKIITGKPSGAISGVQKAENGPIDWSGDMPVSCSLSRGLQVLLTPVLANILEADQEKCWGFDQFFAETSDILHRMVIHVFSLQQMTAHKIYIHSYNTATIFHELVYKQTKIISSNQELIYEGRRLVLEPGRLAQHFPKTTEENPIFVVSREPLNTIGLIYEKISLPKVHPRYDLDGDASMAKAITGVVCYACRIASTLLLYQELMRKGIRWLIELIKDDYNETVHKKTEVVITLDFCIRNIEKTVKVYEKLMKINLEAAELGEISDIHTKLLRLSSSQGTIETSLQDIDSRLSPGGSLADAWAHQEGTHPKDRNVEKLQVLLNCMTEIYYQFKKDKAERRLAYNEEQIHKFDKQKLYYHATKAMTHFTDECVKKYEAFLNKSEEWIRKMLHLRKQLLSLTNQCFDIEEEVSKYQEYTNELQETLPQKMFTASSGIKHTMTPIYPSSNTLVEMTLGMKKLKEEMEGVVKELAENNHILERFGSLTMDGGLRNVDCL
UniProt Q8TDY2: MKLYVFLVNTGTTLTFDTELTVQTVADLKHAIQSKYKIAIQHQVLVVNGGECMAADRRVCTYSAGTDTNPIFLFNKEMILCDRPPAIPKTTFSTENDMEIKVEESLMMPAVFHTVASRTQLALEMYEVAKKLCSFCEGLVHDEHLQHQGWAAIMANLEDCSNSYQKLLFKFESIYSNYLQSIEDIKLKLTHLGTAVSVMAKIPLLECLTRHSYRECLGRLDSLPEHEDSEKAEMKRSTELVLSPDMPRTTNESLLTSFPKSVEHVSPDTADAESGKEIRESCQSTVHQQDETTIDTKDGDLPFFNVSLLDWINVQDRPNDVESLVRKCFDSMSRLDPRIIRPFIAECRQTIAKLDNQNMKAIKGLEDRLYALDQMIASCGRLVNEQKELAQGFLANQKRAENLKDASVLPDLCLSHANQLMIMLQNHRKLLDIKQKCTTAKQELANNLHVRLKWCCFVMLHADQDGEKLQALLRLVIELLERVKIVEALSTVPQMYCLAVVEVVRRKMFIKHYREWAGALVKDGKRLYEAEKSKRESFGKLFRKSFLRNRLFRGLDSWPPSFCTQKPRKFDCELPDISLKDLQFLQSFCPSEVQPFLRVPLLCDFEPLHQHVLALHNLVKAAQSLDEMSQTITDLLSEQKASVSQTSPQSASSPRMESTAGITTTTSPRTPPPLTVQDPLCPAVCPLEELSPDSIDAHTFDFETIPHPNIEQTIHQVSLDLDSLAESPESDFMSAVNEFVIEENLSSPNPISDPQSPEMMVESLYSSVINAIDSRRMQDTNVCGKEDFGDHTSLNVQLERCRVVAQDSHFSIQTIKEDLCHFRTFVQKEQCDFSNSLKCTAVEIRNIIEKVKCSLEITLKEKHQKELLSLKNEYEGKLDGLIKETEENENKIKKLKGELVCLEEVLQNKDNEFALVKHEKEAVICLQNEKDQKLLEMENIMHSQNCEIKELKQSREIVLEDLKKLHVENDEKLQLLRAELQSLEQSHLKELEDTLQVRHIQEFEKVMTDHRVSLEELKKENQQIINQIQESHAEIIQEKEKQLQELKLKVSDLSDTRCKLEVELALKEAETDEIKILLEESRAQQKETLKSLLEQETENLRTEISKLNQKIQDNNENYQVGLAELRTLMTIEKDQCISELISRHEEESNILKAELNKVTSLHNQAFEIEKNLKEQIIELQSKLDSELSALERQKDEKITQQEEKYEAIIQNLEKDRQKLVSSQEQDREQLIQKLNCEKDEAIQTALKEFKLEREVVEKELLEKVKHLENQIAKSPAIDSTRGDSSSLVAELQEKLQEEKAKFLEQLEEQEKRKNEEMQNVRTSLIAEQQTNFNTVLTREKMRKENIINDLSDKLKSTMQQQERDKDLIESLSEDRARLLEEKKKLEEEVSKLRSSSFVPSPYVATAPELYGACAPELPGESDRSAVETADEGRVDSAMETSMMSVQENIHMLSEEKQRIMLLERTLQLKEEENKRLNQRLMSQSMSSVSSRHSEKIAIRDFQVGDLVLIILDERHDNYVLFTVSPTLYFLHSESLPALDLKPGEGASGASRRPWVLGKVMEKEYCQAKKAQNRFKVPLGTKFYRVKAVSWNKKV

binding [1]	binding [2]	Substance
binds		EGFP–TBK1 kinase-dead (KD) (from UniProt Q9UHD2) (enzyme)
	no binding (tested: 250 nM)	FIP200–GFP (from UniProt Q8TDY2 1-1594)

From publication PMC11564117, “Control of mitophagy initiation and progression by the TBK1 adaptors NAP1 and SINTBAD” (Nature Structural & Molecular Biology, 2024)
